Changes are numbered by the printed parent chain. Names and notes keep the numbering of the source. No constants are given. Whether binding was seen depends on the method and setting. In cells and extracts the contact can be indirect. Binding calls can cover weak binding; strength is not graded here. Where a sequence is shown, tags or fusion partners need not be part of it.
B1: Atp5 (oligomycin sensitivity conferring protein, OSCP) (protein, UniProt P09457 18-212)
chain: ASKAAAPPPVRLFGVEGTYATALYQAAAKNSSIDAAFQSLQKVESTVKKNPKLGHLLLNPALSLKDRNSVIDAIVETHKNLDGYVVNLLKVLSENNRLGCFEKIASDFGVLNDAHNGLLKGTVTSAEPLDPKSFKRIEKALSASKLVGQGKSLKLENVVKPEIKGGLIVELGDKTVDLSISTKIQKLNKVLEDSI
B2: Atp5, mildly overexpressed from a galactose-inducible promoter (untagged) (protein, UniProt P09457 18-212)
chain: B1 chain
B3: Atp5^G183A, mildly overexpressed from a galactose-inducible promoter (untagged) (protein, UniProt P09457 18-212)
chain: B1 chain with G166A

Amino acid sequences for entries named in this document (tags omitted). A change or cut given only in a name is not applied to a line headed by its entry.
UniProt P0CS90: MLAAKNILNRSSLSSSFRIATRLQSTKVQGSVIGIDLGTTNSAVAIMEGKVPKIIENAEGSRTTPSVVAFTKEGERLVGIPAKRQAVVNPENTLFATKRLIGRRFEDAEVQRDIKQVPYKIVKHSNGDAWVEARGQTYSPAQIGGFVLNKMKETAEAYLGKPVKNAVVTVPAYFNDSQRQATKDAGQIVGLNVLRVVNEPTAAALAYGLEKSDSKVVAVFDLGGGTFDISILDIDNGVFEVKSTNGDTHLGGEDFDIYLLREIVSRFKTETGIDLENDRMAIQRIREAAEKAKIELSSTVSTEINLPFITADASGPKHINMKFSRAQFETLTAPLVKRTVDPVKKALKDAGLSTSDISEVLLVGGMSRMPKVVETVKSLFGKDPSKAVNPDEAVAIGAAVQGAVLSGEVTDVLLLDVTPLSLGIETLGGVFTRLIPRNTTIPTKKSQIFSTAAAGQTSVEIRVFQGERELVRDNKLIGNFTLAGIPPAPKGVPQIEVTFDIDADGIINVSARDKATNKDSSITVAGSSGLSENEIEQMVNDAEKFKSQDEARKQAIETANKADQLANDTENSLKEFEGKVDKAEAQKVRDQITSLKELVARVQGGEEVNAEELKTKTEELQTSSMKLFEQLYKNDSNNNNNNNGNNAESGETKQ

target: mutated mtHsp70 of the temperature-sensitive allele ssc1-62 (S. cerevisiae) (UniProt P0CS90); test: pull-down; mtHsp70 with its bound proteins captured on Mge1His-coated Ni-NTA agarose from digitonin lysates of mitochondria (wild type, ρ0, atp3∆, atp4∆, atp5∆, atp7∆, atp14∆, ina17∆, ina22∆, ssc1-62, cells overexpressing Atp5 or Atp5^G183A); SDS-PAGE and immunodetection

Row | binding | Binder
1 | binds weakly | B1
2 | no binding | B2
3 | no binding | B3

Source: paper PMC9810599
